Source: PubChem BioAssay AID2685 (National Center for Advancing Translational Sciences (NCATS), 2010)
Some of the results follow. Shown are side measurements of this screen, not its main read-out; they come without a call. Most of these compounds were active or inconclusive in the main read-out, so they are no random draw. The note in brackets gives the kind of curve behind each potency; many fits are weak.

Assay: qHTS Assay for Lipid Storage Modulators in Drosophila S3 Cells;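 on cell number change: cells counted by Cell Tracker Red CMTPX staining in the red channel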
Conditions: BODIPY lipid droplet fluorescence, 18-24 h; for cell number change: measured here: cell count max response, cells fed with added oleic acid
Outline: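 Drosophila S3 cells loaded with oleic acid (400 uM, as added) and compounds at several concentrations; lipid droplets imaged by 488-nm laser-scanning cytometry, 500–530 nm intensity and object ratio to cell channel. Percent activity normalized to 20 uM Triacsin C.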

[1] = measured here: lipid fluorescence (Fed channel) AC50, cells fed with added oleic acid
[2] = measured here: cell number channel AC50, cells fed with added oleic acid

| Structure (SMILES) | cell number change [%] | AC50 [1] | AC50 [2] |
| --- | --- | --- | --- |
| C=CCOC(=O)C1=C(C)NC(=O)NC1c1ccc(OC(=O)c2ccco2)c(OC)c1 (stereo not drawn) | 10.7 | 6510 nM [rising, single point] |  |
| Cc1csc(SCC(=O)N2CCN(S(=O)(=O)c3ccc(Cl)cc3)CC2)n1 |  | 1460 nM [rising, full curve] |  |
| Cc1ccc(S(=O)(=O)N(CC(=O)Nc2cccc([N+](=O)[O-])c2)Cc2ccc(Cl)cc2)cc1 | 17.7 |  |  |
| O=C(CSc1nc(C2CC2)nc2ccccc12)N1c2ccccc2Sc2ccc(C(F)(F)F)cc21 |  | 731 nM [rising, single point] |  |
| COc1cccc(C2NC(=O)CCC2[N+](=O)[O-])c1OC (stereo not drawn) | -6.31 |  |  |
| Cc1cccc2cc(/C=N/NC(=O)c3ccccc3O)c(Cl)nc12 | -23 | 3660 nM [rising, partial curve] |  |
| COc1ccc(OC)c(CCNC(=O)c2ccc3c(=O)[nH]c4c(C(=O)NC(C)C)sc(=S)n4c3c2)c1 | -17.9 | 820 nM [falling, single point] |  |
| COc1ccc(CN(C)C(=O)c2cccc(S(=O)(=O)N3CCN(c4ccccc4)CC3)c2)c(OC)c1OC | 8.05 |  |  |
| CCOc1ccc(N=C2NC(=O)C(CC(=O)O)S2)cc1 (stereo not drawn) | 38.2 |  |  |
| O=C(c1cccc(S(=O)(=O)NCc2ccccc2)c1)N1CCCC1 |  | 5.17 nM [rising, full curve, poor fit] |  |
| COC(=O)Cc1c[nH]c2ccc(OCC(O)CNC(C)C)cc12 (stereo not drawn) | 2.92 | 11600 nM [falling, single point] |  |
| Cn1c2c(c(=O)n(C)c1=O)C(C(F)(F)F)(C(F)(F)F)N=C(c1ccccc1Cl)N2 | -1.53 |  | 5.17 nM [falling, full curve, poor fit] |
| CC(/C=C/c1ccccc1F)=N\NC(=O)c1cccc(F)c1 |  | 1460 nM [rising, partial curve] |  |
| O=C(Nc1cccc(Oc2ccc3c(c2)C(=O)NC3=O)c1)c1ccco1 | 36.7 | 4610 nM [rising, single point] | 2590 nM [rising, full curve] |
| Cc1ccc(NC(=Nc2ccc(Br)cc2)N2CCOCC2)cc1C | 13.2 | 3660 nM [rising, full curve] |  |
| Cc1ccc(CN(C)C(=O)c2cc(COc3cccc(C(F)(F)F)c3)on2)o1 | -55 | 651 nM [rising, full curve] | 32600 nM [falling, single point] |
| COc1ccc(OC)c2c(C)cc(NCCN3CCOCC3)nc12 | 6.64 | 1160 nM [rising, partial curve] |  |
| COCCn1c(SCC(=O)Nc2cc(C)on2)nnc1C(C)C | 11.8 |  |  |
| CC(C)(C)c1ccc(OCC(O)CN(CCO)CC(O)Cn2ccc3ccccc32)cc1 (stereo not drawn) | -27.5 | 18400 nM [falling, partial curve] |  |
| O=C(NNc1ccc([N+](=O)[O-])cc1[N+](=O)[O-])C1C2CCCCC21 (stereo not drawn) | 9.84 | 1460 nM [rising, partial curve] |  |
| COc1ccc(NC(=O)CSCC(=O)N(C)Cc2c(F)cccc2Cl)cc1 | -15.2 | 3260 nM [falling, single point] |  |

| Structure (SMILES) | cell number change [%] | AC50 [1] | AC50 [2] |
| --- | --- | --- | --- |
| Cc1cccc(OCCC(=O)NCC(c2ccco2)N2CCCCC2)c1 (stereo not drawn) | 49.2 |  | 29100 nM [rising, single point] |
| CCOC(=O)[C@H]1[C@H]2COc3ccc(OC)cc3[C@@H]2N2C(=O)CN(C)C(=O)[C@@]12C | 19.7 | 1640 nM [rising, partial curve, poor fit] |  |
| CCN(CC)c1nc2n(c(=O)n1)CCO2 | 2.73 | 651 nM [rising, single point] |  |
| CC1(C)CCCN(Cc2c(O)ccc3c(=O)c(-c4nc5ccccc5s4)c(N)oc23)C1 | 20.9 | 16400 nM [falling, single point] |  |
| COc1ccccc1-n1nnnc1SCC(=O)Nc1ccc(C)c(N)c1 | -4.5 |  |  |
| O=C(NC1CCCCC1)N(Cc1cc2cc3c(cc2[nH]c1=O)OCCO3)CC1CCCO1 (stereo not drawn) | -27.6 |  |  |
| CCOC(=O)C1=CC[C@@H](c2ccco2)N(S(=O)(=O)c2ccc(C)cc2)[C@H]1C(=O)OCC | -8.47 |  | 1160 nM [falling, single point] |
| CC1CN(C(=S)NC2CCCC2)CC(C)O1 (stereo not drawn) | 2.48 | 29100 nM [falling, single point] |  |
| CC(=O)Oc1cccc(NC(=O)c2ccc3c(c2)C(=O)N(CC(C)C)C3=O)c1 | -29.8 | 206 nM [falling, full curve] |  |
| CC(=O)Nc1ccc(/C=N/NC(=O)CNS(=O)(=O)c2ccccc2)cc1 |  | 29100 nM [rising, single point] |  |
| COc1cccc2cc(C(=O)CS(=O)(=O)c3ccc(Cl)cc3)c(=O)oc12 | -13.9 | 366 nM [falling, full curve] | 5.8 nM [falling, full curve, poor fit] |
| Cc1ccccc1OCC(=O)OCC(=O)Nc1ccc(Cl)cn1 | 8.07 | 2060 nM [falling, partial curve] | 1840 nM [falling, partial curve] |
| CCOC(=O)N1CCN(C(=O)CN(c2ccccc2)S(C)(=O)=O)CC1 |  | 6510 nM [falling, partial curve, poor fit] | 3660 nM [falling, single point] |
| Nc1ccc(S(=O)(=O)NC2(C(F)(F)F)NC(=O)N(c3ccc(F)cc3)C2=O)cc1 (stereo not drawn) | 1.28 |  |  |
| O=C(Nc1ccc(OCc2ccccc2)cc1)c1cccs1 | -3.28 | 29100 nM [falling, single point] |  |
| Cc1cc(C(=O)CNCc2ccco2)c(C)n1-c1ccc(F)cc1 | -3.22 | 517 nM [falling, full curve, poor fit] | 820 nM [falling, full curve, poor fit] |
| CCOC(=O)c1c(C)oc(C)c(C(=O)OCC)c1=O | 10.9 | 651 nM [falling, full curve, poor fit] |  |
| O=C(CNC(=O)N1CC(=O)Nc2ccccc21)Nc1ccccc1F | -4.25 |  |  |
| Cc1cccc(C(=O)NNC(=O)c2ccc(O)cc2)c1 | -20.4 | 130 nM [falling, full curve, poor fit] |  |
| O=c1[nH]c2ccccc2nc1/C=C/c1ccc(Cl)cc1 | 7.64 | 651 nM [rising, single point] |  |
| CCCn1c(N)c(NCCN2CCOCC2)c(=O)n(CC(=O)NCc2ccccc2)c1=O | -10.4 | 6510 nM [falling, single point] |  |

3 entries out of the list, ordered by length of the SMILES, largest number first:

| Structure (SMILES) | cell number change [%] | AC50 [1] | AC50 [2] |
| --- | --- | --- | --- |
| Cn1c2c(c(=O)n(C)c1=O)C(C(F)(F)F)(C(F)(F)F)N=C(c1ccccc1Cl)N2 | -1.53 |  | 5.17 nM [falling, full curve, poor fit] |
| CC1(C)CCCN(Cc2c(O)ccc3c(=O)c(-c4nc5ccccc5s4)c(N)oc23)C1 | 20.9 | 16400 nM [falling, single point] |  |
| Cc1ccc(NC(=Nc2ccc(Br)cc2)N2CCOCC2)cc1C | 13.2 | 3660 nM [rising, full curve] |  |

Remaining list, next part:

| Structure (SMILES) | cell number change [%] | AC50 [1] | AC50 [2] |
| --- | --- | --- | --- |
| CCc1cc2c(nc1CC)CCN(CC/C(C)=N/OC[C@H]1O[C@H](c3ccccc3)C=C[C@@H]1Oc1ccc(OC)cc1)C2 | -18.3 | 2590 nM [rising, single point] |  |
| O=C1CC(Sc2ncn[nH]2)C(=O)N1c1ccccc1 (stereo not drawn) | -35.1 | 23100 nM [falling, partial curve] | 6510 nM [falling, full curve, poor fit] |
| O=C(CNc1cccc(S(=O)(=O)N2CCCC2)c1)Nc1ccc(C(F)(F)F)cc1 | -33.4 |  | 11.6 nM [falling, full curve, poor fit] |
| COc1ccccc1C(=O)NCC(=O)NCCC(c1ccccc1)c1ccccc1 | -19 | 920 nM [falling, full curve, poor fit] |  |
| Cc1cc(Br)c(NC(=O)Cn2c([N+](=O)[O-])cnc2C)cc1C | -2.84 | 3660 nM [rising, single point] |  |
| CC(c1ccccc1)N1CC(C(=O)N2CCN(c3ccc(F)cc3)CC2)CC1=O (stereo not drawn) | 4.86 | 6510 nM [falling, single point] |  |
| CCn1nc(NC(=O)C(C)C)c2cc3cccc(C)c3nc21 | 6.97 | 2310 nM [falling, partial curve] |  |
| O=C(COC(=O)CCc1nc2ccccc2s1)Nc1cccc(S(=O)(=O)N2CCOCC2)c1 | -8.69 | 20600 nM [rising, single point] |  |
| COc1ccccc1CCN1C(=S)NC(C)(C)CC1(C)O (stereo not drawn) | 38.5 |  | 18400 nM [rising, single point] |
| Cc1oc(C(C)(C)C)c(CN2CCCC2)c1C(=O)O | -19.4 | 29100 nM [falling, single point] |  |
| O=C(NCCc1ccccc1)c1c(F)c(F)c(F)c(F)c1F | -4 | 580 nM [falling, full curve] |  |
| Nc1o[nH]c(=O)c1Cc1ccccc1 | 11.4 | 2910 nM [rising, single point] |  |
| O=C(Cn1ncc2c(=O)oc3ccccc3c21)NC1CC1 | 36.1 |  | 20600 nM [rising, single point] |
| CCOCCCN(C(=O)Cn1nnc(-c2ccc(C)o2)n1)C(C(=O)NC1CCCC1)c1ccco1 (stereo not drawn) | -6.58 |  |  |
| COc1ccc(-c2nn(CC(=O)N(C)C)c(=O)c3ccccc23)cc1 | 15.3 | 411 nM [rising, single point] |  |
| CSc1ccccc1NC(=O)c1cc(-c2cccnc2)nc2ccc(Br)cc12 | -28.3 | 29100 nM [falling, single point] |  |
| Cc1cc(C)c2[nH]c(=O)c(CN(Cc3ccco3)C(=S)NCC3CCCO3)cc2c1 (stereo not drawn) | 26.3 | 411 nM [rising, full curve] |  |
| Cc1cc(C)c(OCCNC(=O)c2ccccc2Sc2ccccc2C#N)c(C)c1 | 13.3 | 1160 nM [falling, single point] |  |
| C=CCOc1ccc(/C=C2/C(=N)N3N=C(CC(=O)N4CCCC4)SC3=NC2=O)cc1OC | -13.1 | 29100 nM [falling, single point] |  |
